Data source: PubChem BioAssay AID602196 (INSERM, 2012)
In all, the deposit lists about 23,000 reagents; shown is a random part of them. Of all reagents, 455 (2%) are marked active. 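Active includes both protection and sensitisation; some change values fall well beyond the stated -50 to +50 range.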 Entries without a mark were called inactive. Not all columns of the deposit are shown. The record does not give: the amount of reagent.

- Screen: 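Knock-downs that protect lung cancer cells from cisplatin or sensitise them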
- Cell system: human A549 lung cancer cells
- Reagents: siRNA pair against human genes
- Duration: 48 h transfection before cisplatin; time from cisplatin to read-out not stated
- Conditions: cisplatin at a dose killing half of control-siRNA cells; exact dose and duration not given
- Detection: 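Cisplatin cell death as a shift from the 50% death seen with control siRNA; siRNAs toxic or growth-blocking alone scored 0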
- Reading the numbers: two-siRNA summed score (-2 to +2): higher = both siRNAs protect from cisplatin killing; -2 means both sensitise; mean protection from cisplatin (shift in death): higher = protection from cisplatin killing
- Hit rule: 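siRNAs harmful alone (LDH or WST-1) get 0; others get +1 for less and -1 for more cisplatin killing; genes are active when the two siRNAs give the same sign, summing to ±2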
- Meaning of the calls: active = both siRNAs shift cisplatin killing the same way; inactive = no consistent shift, or siRNA harmful alone

NKAP [SID131505169] showed two-siRNA summed score (-2 to +2) = 0; mean protection from cisplatin (shift in death) (%) = -3.6.
For UFM1 [SID131509624], the values are two-siRNA summed score (-2 to +2) = 0; mean protection from cisplatin (shift in death) (%) = 2.3.
After knock-down of H1-4 [SID131509892], the record shows two-siRNA summed score (-2 to +2) = 0; mean protection from cisplatin (shift in death) (%) = 2.6.
Silencing of LOC389637 [SID131508780] came out at: two-siRNA summed score (-2 to +2) = 0; mean protection from cisplatin (shift in death) (%) = 1.5.
LOC402677 [SID131518665] gave two-siRNA summed score (-2 to +2) = 0; mean protection from cisplatin (shift in death) (%) = 23.8.
After knock-down of LOC400647 [SID131508119], the record shows two-siRNA summed score (-2 to +2) = 0; mean protection from cisplatin (shift in death) (%) = 0.6.
Knock-down of AMBN [SID131509049] resulted in: two-siRNA summed score (-2 to +2) = 0; mean protection from cisplatin (shift in death) (%) = 1.8.
GAL3ST3 [SID131501122] showed two-siRNA summed score (-2 to +2) = -1; mean protection from cisplatin (shift in death) (%) = -12.2.
Against PHB2 [SID131501836], the entry reads two-siRNA summed score (-2 to +2) = -1; mean protection from cisplatin (shift in death) (%) = -7.1.
MMP12 [SID131511433] scored two-siRNA summed score (-2 to +2) = 0; mean protection from cisplatin (shift in death) (%) = 4.3.
With knock-down of RGCC [SID131507735], the record shows two-siRNA summed score (-2 to +2) = 0; mean protection from cisplatin (shift in death) (%) = 0.2.
With knock-down of RPS6KB2 [SID131520880], the screen gave two-siRNA summed score (-2 to +2) = 1; mean protection from cisplatin (shift in death) (%) = 11.4.
NPM1P39 [SID131512299] showed two-siRNA summed score (-2 to +2) = 0; mean protection from cisplatin (shift in death) (%) = 5.3.
Silencing of GBF1 [SID131513581] resulted in: two-siRNA summed score (-2 to +2) = 0; mean protection from cisplatin (shift in death) (%) = 6.7.
LOC388720 [SID131522554] scored two-siRNA summed score (-2 to +2) = 1; mean protection from cisplatin (shift in death) (%) = 19.9.
Against C3AR1 [SID131520289], the entry reads two-siRNA summed score (-2 to +2) = 1; mean protection from cisplatin (shift in death) (%) = 9.4.
With knock-down of LOC283155 [SID131519694], the screen gave two-siRNA summed score (-2 to +2) = 1; mean protection from cisplatin (shift in death) (%) = 7.
After knock-down of DDT [SID131517634] the results were two-siRNA summed score (-2 to +2) = 0; mean protection from cisplatin (shift in death) (%) = 14.1.
With knock-down of LOC440910 [SID131522760] the results were two-siRNA summed score (-2 to +2) = 1; mean protection from cisplatin (shift in death) (%) = 23.1.
Silencing of AIF1L [SID131512147] gave: two-siRNA summed score (-2 to +2) = 0; mean protection from cisplatin (shift in death) (%) = 5.2.
Against VXN [SID131503953], the values are two-siRNA summed score (-2 to +2) = 0; mean protection from cisplatin (shift in death) (%) = -7.1.
With knock-down of RPS24 [SID131518876], the screen gave two-siRNA summed score (-2 to +2) = 0; mean protection from cisplatin (shift in death) (%) = 35.1.

Reformatted: entries from further up.
{"gene knocked down": "C3AR1", "PubChem SID": "SID131520289", "two-siRNA summed score (-2 to +2)": 1, "mean protection from cisplatin (shift in death) (%)": 9.4}
{"gene knocked down": "LOC283155", "PubChem SID": "SID131519694", "two-siRNA summed score (-2 to +2)": 1, "mean protection from cisplatin (shift in death) (%)": 7}
{"gene knocked down": "DDT", "PubChem SID": "SID131517634", "two-siRNA summed score (-2 to +2)": 0, "mean protection from cisplatin (shift in death) (%)": 14.1}
{"gene knocked down": "LOC440910", "PubChem SID": "SID131522760", "two-siRNA summed score (-2 to +2)": 1, "mean protection from cisplatin (shift in death) (%)": 23.1}
{"gene knocked down": "AIF1L", "PubChem SID": "SID131512147", "two-siRNA summed score (-2 to +2)": 0, "mean protection from cisplatin (shift in death) (%)": 5.2}

More reagents follow.
With knock-down of CCDC92 [SID131509238], the record shows two-siRNA summed score (-2 to +2) = 0; mean protection from cisplatin (shift in death) (%) = 2.
After knock-down of KRTAP19-5 [SID131517901], the screen gave two-siRNA summed score (-2 to +2) = 0; mean protection from cisplatin (shift in death) (%) = 15.3.
LOC391825 [SID131514721] showed two-siRNA summed score (-2 to +2) = 0; mean protection from cisplatin (shift in death) (%) = 8.2.
FOXD4L1 [SID131518205] scored two-siRNA summed score (-2 to +2) = 0; mean protection from cisplatin (shift in death) (%) = 17.2.
For LOC387897 [SID131508924], the values are two-siRNA summed score (-2 to +2) = 0; mean protection from cisplatin (shift in death) (%) = 1.6.
LOC201475 [SID131504116] showed two-siRNA summed score (-2 to +2) = 0; mean protection from cisplatin (shift in death) (%) = -6.5.
With knock-down of PCBP1 [SID131501386] the results were two-siRNA summed score (-2 to +2) = -1; mean protection from cisplatin (shift in death) (%) = -10.1.
After knock-down of LOC441828 [SID131518645], the record shows two-siRNA summed score (-2 to +2) = 0; mean protection from cisplatin (shift in death) (%) = 23.3.
After knock-down of STK24 [SID131513269] the results were two-siRNA summed score (-2 to +2) = 0; mean protection from cisplatin (shift in death) (%) = 6.4.
OR52I2 [SID131506062] showed two-siRNA summed score (-2 to +2) = 0; mean protection from cisplatin (shift in death) (%) = -2.1.
After knock-down of LPCAT4 [SID131518621], the record shows two-siRNA summed score (-2 to +2) = 0; mean protection from cisplatin (shift in death) (%) = 22.7.
PSORS1C1 [SID131509961] gave two-siRNA summed score (-2 to +2) = 0; mean protection from cisplatin (shift in death) (%) = 2.7.
For OR5AK2 [SID131521502], the entry reads two-siRNA summed score (-2 to +2) = 1; mean protection from cisplatin (shift in death) (%) = 13.8.
Knock-down of MEGF6 [SID131502406] came out at: two-siRNA summed score (-2 to +2) = -1; mean protection from cisplatin (shift in death) (%) = -2.6.
Against CLEC18C [SID131504782] the deposit lists two-siRNA summed score (-2 to +2) = 0; mean protection from cisplatin (shift in death) (%) = -4.5.
With knock-down of IGSF9 [SID131501228], the record shows two-siRNA summed score (-2 to +2) = -1; mean protection from cisplatin (shift in death) (%) = -11.3.
For HID1 [SID131518097], the entry reads two-siRNA summed score (-2 to +2) = 0; mean protection from cisplatin (shift in death) (%) = 16.5.
For ZNF670 [SID131503024], the entry reads two-siRNA summed score (-2 to +2) = 0; mean protection from cisplatin (shift in death) (%) = -15.8.
